{
  "source": "PubChem BioAssay AID540256",
  "about": "(National Center for Advancing Translational Sciences (NCATS), 2011)",
  "note": "Values joined by “and” are separate entries in the source; they are usually repeats but may differ in a detail not shown here. Equal entries are not always repeated. The whole screen tested about 300,000 compounds, of which about 3,700 (1.2%) were called active. The inconclusive results got no clear call from the source; some entries with a clear call stand among them for comparison. The call rests on the fitted dose curve; tested in HEK293 cells. Potencies of inconclusive entries are doubtful fits and often do not repeat. On the % scale 0 is the no-effect control and ±100 the full control effect; potency means the concentration at half of the fitted maximal effect.",
  "data": [
    {"assay": "qHTS for Inhibitors of binding or entry into cells for Lassa Virus; further: nearly all actives have a fitted effect of over 50% in size", "settings": "Lassa virus pseudotype entry inhibition, cell reporter; activity change, negative = inhibition: at 37.9 µM (top of the series) unless noted", "values": [
      {"smiles": "Clc1ccc(/C(Cc2nc3ccccc3[nH]2)=N\\Nc2ccccc2)cc1", "Potency": "inconclusive: 35.5 µM [inhibitor, single point]"},
      {"smiles": "COc1cc(Cl)c(C)cc1NC(=O)CSc1nnc(-c2ccco2)n1CC(C)C", "Potency": "inconclusive: 32.6 µM [inhibitor, partial curve, poor fit]"},
      {"smiles": "COc1cc(NC(=O)CN2C(=O)CN(C)C2=O)c(C)cc1[N+](=O)[O-]", "Potency": "inconclusive: 6.31 µM [inhibitor, single point]"},
      {"smiles": "CCOC(=O)c1noc2ncn(CC(=O)Nc3ccc(C)c(F)c3)c(=O)c12", "activity change, negative = inhibition": "inactive: 1.28% [at 46.1 µM]"},
      {"smiles": "CC(=O)c1nn(-c2ccccc2)cc1C(=O)c1ccc(C)cc1", "Potency": "inconclusive: 7.94 µM [inhibitor, partial curve, poor fit]"},
      {"smiles": "Cc1ccc(-n2cc(C(=O)c3ccccc3O)cn2)cc1", "Potency": "active: 3.55 µM"},
      {"smiles": "O=C(NC(=S)Nc1cccc2cc(O)ccc12)c1ccccc1Br", "activity change, negative = inhibition": "inactive: 1.03%"},
      {"smiles": "CCN=c1scc(-c2ccc3c(c2)NC(=O)CO3)n1N=C1CCCC1", "Potency": "inconclusive: 6.31 µM [inhibitor, partial curve] and inconclusive: 25.1 µM [inhibitor, single point]"},
      {"smiles": "CSc1nc2ccc(NC(=O)c3nn(C(C)C)c(=O)c4ccccc34)cc2s1", "Potency": "inconclusive: 23.1 µM [activator, single point]"},
      {"smiles": "COc1ccc(NC(=O)/C=C/C(=O)O)cc1Cl", "activity change, negative = inhibition": "inactive: -1.98%"},
      {"smiles": "O=C(O)c1cccc(NC(=O)c2cc(NC(=O)c3ccccc3)cc(NC(=O)c3ccccc3)c2)c1", "activity change, negative = inhibition": "inactive: -11% [at 46.1 µM]"},
      {"smiles": "Nc1cccc(CCc2nc3ccccc3[nH]2)c1", "Potency": "inconclusive: 8.2 µM [activator, partial curve, poor fit]"},
      {"smiles": "Cc1ccc(-n2nc(CO)c(C(=O)NCc3ccccn3)n2)cc1C", "activity change, negative = inhibition": "inactive: 7.14% [at 46.1 µM]"},
      {"smiles": "Cc1ccc(-c2cc3c(n2-c2ccc(C(=O)O)cc2)CCCC3=O)cc1", "activity change, negative = inhibition": "inactive: 16.1%"},
      {"smiles": "COc1ccc(NC(=O)Cn2nnc(-c3ccccc3NC(=O)C3CC3)n2)cc1", "Potency": "inconclusive: 3.55 µM [inhibitor, single point]"},
      {"smiles": "CCc1ccc(-n2nc3cc(C)c(NC(=O)c4cccc5ccccc45)cc3n2)cc1", "activity change, negative = inhibition": "inactive: 7.26% [at 46.1 µM]"},
      {"smiles": "Cc1ccc(C)c(S(=O)(=O)NCc2ccc(C(=O)N3CCCCC3C)cc2)c1", "note": "(configuration not stated)", "Potency": "inconclusive: 16.4 µM [inhibitor, single point]"},
      {"smiles": "O=c1c(-c2ccc(Cl)cc2)coc2c(CN3CCOCC3)c(O)ccc12", "Potency": "inconclusive: 1.26 µM [inhibitor, single point]"},
      {"smiles": "CNc1nc(N2CCc3ccccc32)ncc1F", "Potency": "inconclusive: 0.92 µM [activator, full curve, poor fit]"},
      {"smiles": "CCOC(=O)c1c(C)[nH]c(C(=O)COC(=O)CSC)c1C", "activity change, negative = inhibition": "inactive: 3.61%"},
      {"smiles": "CCOC(=O)c1cnc2ccc(OC)cc2c1NCCc1ccccc1", "activity change, negative = inhibition": "inactive: 3.36% [at 46.1 µM]"},
      {"smiles": "CCOc1ccc(S(=O)(=O)NCCC(=O)NCCc2ccc(C(C)C)cc2)cc1", "Potency": "inconclusive: 15.8 µM [inhibitor, single point]"},
      {"smiles": "Cn1c(=O)c2c(SCC(=O)NCc3ccco3)nc(-c3ccccc3)nc2n(C)c1=O", "activity change, negative = inhibition": "inactive: 12.9% [at 46.1 µM]"},
      {"smiles": "CC1(c2cccc(Br)c2)NC(=O)N(CC(=O)N2CCc3ccccc32)C1=O", "note": "(configuration not stated)", "activity change, negative = inhibition": "inactive: -19.3%"},
      {"smiles": "CCC(C)c1ccccc1NC(=O)COC(=O)C1=NN(c2ccccc2)C(=O)CC1", "note": "(configuration not stated)", "Potency": "inconclusive: 0.631 µM [activator, full curve, poor fit]"},
      {"smiles": "CCOc1ccc(CN(CCO)CCO)cc1[N+](=O)[O-]", "activity change, negative = inhibition": "inactive: 5.21%"},
      {"smiles": "CCOc1ccc(CN2CCN(S(=O)(=O)c3ccc(Cl)cc3)CC2)cc1", "Potency": "inconclusive: 35.5 µM [inhibitor, single point]"},
      {"smiles": "CCOc1ccccc1-c1nc(-c2cc3ccccc3nc2OC)no1", "activity change, negative = inhibition": "inactive: -19.9%"},
      {"smiles": "CCOC(=O)c1c(NC(=O)CCl)sc(C(=O)N(CC)CC)c1C", "Potency": "inconclusive: 10 µM [inhibitor, partial curve, poor fit]"},
      {"smiles": "Cc1sc(N/N=C/c2ccco2)nc1-c1ccccc1", "Potency": "active: 20.6 µM"},
      {"smiles": "Oc1ccccc1/C=N/Nc1ccccc1", "Potency": "inconclusive: 5.62 µM [inhibitor, partial curve]"},
      {"smiles": "COC(=O)C(Cc1ccccc1)NC(=O)C12CC3CC(CC(C3)C1)C2", "note": "(configuration not stated)", "Potency": "inconclusive: 35.5 µM [inhibitor, single point]"},
      {"smiles": "C=C(C)COc1ccc(-c2ncncc2-c2ccc(Br)cc2)c(O)c1", "Potency": "inconclusive: 35.5 µM [inhibitor, single point]"},
      {"smiles": "CCn1c(SCC(=O)N/N=C/c2cc(OC)c(OC)c(OC)c2)nc2ccccc21", "activity change, negative = inhibition": "inactive: -16.2%"},
      {"smiles": "CCOC(=O)NN=C1C[C@@H](O)[C@@H](O)[C@@H]2[C@H]3C(=O)N(C4CCCCC4)C(=O)[C@@H]3CC[C@H]12", "Potency": "inconclusive: 1.19 µM [inhibitor, single point]"},
      {"smiles": "c1ccc(Nc2ccccn2)cc1", "activity change, negative = inhibition": "inactive: 4.81%"},
      {"smiles": "Cc1ccc(Cc2nc3ccccc3nc2SCC(=O)N2CCCCC2)cc1", "activity change, negative = inhibition": "inactive: -24.4% [at 46.1 µM]"},
      {"smiles": "O=c1oc2c(F)cc(F)cc2cc1S(=O)(=O)c1ccc(F)cc1", "activity change, negative = inhibition": "inactive: -27.1% [at 46.1 µM]"},
      {"smiles": "O=C(O)C1C2C=CC(C2)C1C(=O)NCCC1=CCCCC1", "note": "(configuration not stated)", "activity change, negative = inhibition": "inactive: 20.8%"},
      {"smiles": "CCOC(=O)C1CCN(C(=O)c2[nH]c3ccc(OC)cc3c2C)CC1", "Potency": "inconclusive: 17.8 µM [activator, single point]"},
      {"smiles": "CCCCCCCCCCCCn1ccc(=N)cc1", "Potency": "inconclusive: 7.94 µM [inhibitor, partial curve, poor fit]"},
      {"smiles": "CCN(CC)S(=O)(=O)c1ccc(OC)c(NC(=O)CSc2ccccc2)c1", "Potency": "inconclusive: 35.5 µM [inhibitor, single point]"},
      {"smiles": "Cc1ccc(-c2ocnc2C(=O)Nc2ccccc2NC(=O)c2ccccn2)cc1", "activity change, negative = inhibition": "inactive: -19.9%"},
      {"smiles": "COc1cc(CNc2ccc3[nH]c(=O)[nH]c3c2)ccc1OCC(=O)NC(C)(C)C", "Potency": "inconclusive: 6.51 µM [inhibitor, partial curve, poor fit]"},
      {"smiles": "CCOC(=O)c1sc(NC(=O)CCSC)nc1C", "Potency": "inconclusive: 3.26 µM [activator, partial curve, poor fit]"},
      {"smiles": "Cc1ccccc1NC(=O)CSc1nc2c(c(-c3ccco3)c1C#N)CCCC2", "activity change, negative = inhibition": "inactive: 0.447%"},
      {"smiles": "CC1=C(C(=O)Nc2ccc(C)cc2C)C(CC(C)C)n2nc(SCc3ccccc3C)nc2N1", "note": "(configuration not stated)", "activity change, negative = inhibition": "inactive: -4.86% [at 46.1 µM]"}
    ]}
  ]
}
